Measurements taken from PMC10743472.
Results are given in words; binding and its absence hold for the method and conditions named. In cells and extracts the contact can be indirect. Some results given as binding are weak or reduced against the parent protein; the word gives no strength.

Sequences of proteins named here, by UniProt entry; tags and fusion partners are left off. Residues count along the entry.
UniProt Q9JHS4, residues 57-634: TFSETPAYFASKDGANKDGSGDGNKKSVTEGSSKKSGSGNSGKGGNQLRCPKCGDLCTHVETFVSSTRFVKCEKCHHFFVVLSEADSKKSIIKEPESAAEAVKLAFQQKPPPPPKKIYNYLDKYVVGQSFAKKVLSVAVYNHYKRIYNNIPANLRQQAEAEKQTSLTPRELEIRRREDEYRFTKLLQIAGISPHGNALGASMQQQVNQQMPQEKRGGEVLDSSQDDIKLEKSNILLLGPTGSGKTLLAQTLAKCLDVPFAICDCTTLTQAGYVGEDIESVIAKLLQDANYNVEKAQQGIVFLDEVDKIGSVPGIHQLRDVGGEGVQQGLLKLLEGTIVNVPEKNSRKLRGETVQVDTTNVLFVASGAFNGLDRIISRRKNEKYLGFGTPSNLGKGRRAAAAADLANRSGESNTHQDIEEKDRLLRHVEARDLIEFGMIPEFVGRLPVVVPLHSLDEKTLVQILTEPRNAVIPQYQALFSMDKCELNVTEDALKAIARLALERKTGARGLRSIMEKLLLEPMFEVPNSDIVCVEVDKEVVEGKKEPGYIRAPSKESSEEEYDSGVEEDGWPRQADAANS

Biological target: CLPX, specificity component of Clp protease complex, AAA+ ATPase (mouse (endogenous in mouse tissues)) (UniProt Q9JHS4)
Experiment: co-IP; mouse liver mitochondrial fractions, WT and CLPP-null; pull with anti-CLPX (Invitrogen) on Dynabeads, lysis buffer with 1% NP40, 137 mM NaCl, pH 8.0; immunoblot of endogenous proteins

binding: binds
B1: OAT, ornithine delta-aminotransferase, mitochondrial (enzyme, UniProt P29758 26-439)
chain: TSVATKKTEQGPPSSEYIFERESKYGAHNYHPLPVALERGKGIYMWDVEGRQYFDFLSAYGAVSQGHCHPKIIDAMKSQVDKLTLTSRAFYNNVLGEYEEYITKLFNYNKVLPMNTGVEAGETACKLARRWGYTVKGIQKYKAKIVFADGNFWGRTLSAISSSTDPTSYDGFGPFMPGFETIPYNDLPALERALQDPNVAAFMVEPIQGEAGVIVPDPGYLTGVRELCTRHQVLFIADEIQTGLARTGRWLAVDHENVRPDMVLLGKALSGGLYPVSAVLCDDEIMLTIKPGEHGSTYGGNPLGCRIAIAALEVLEEENLAENADKMGAILRKELMKLPSDVVTSVRGKGLLNAIVIRETKDCDAWKVCLRLRDNGLLAKPTHGDIIRLAPPLVIKEDEIRESVEIINKTILSF
